For nine molecules, binding results are on record in PMC10762002.

For assay [1], the target named is T1, endogenous Perilipin 1 (Plin1) (mouse (endogenous in WAT and 3T3-L1)) (UniProt Q8CGN5).
T1 sequence: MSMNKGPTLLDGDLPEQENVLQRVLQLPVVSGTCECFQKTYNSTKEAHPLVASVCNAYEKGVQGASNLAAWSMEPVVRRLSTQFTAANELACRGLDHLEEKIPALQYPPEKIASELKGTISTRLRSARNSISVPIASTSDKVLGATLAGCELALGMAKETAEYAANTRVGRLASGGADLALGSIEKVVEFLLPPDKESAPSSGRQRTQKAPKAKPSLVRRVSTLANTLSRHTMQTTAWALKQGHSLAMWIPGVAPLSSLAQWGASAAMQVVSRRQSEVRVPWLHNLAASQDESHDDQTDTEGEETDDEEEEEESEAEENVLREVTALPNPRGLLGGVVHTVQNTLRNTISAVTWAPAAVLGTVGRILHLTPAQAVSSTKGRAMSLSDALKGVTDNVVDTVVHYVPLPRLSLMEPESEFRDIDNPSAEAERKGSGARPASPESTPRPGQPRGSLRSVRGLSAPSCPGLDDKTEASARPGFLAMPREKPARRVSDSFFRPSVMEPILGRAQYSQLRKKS
Kind of assay: co-IP; total LD-associated proteins of mouse WAT (aP2-ApoL6 TG or WT; fasted or fed mice for Plin1-HSL); IP with Myc, Plin1 or ApoL6 antibody, immunoblot. A general note: Immunoblotting shows a protein as a band on a membrane.

The target in assay [2] is ApoL6-GST (mouse). Briefly: pull-down; bacterially expressed GST-ApoL6 on glutathione-agarose beads incubated with 35S-methionine labelled in vitro translated proteins; SDS-PAGE, autoradiography; only the target purified.
The target in assay [3] is HA-tagged ApoL6 (adipoQ-ApoL6 TG mice) (mouse). Briefly: co-IP; sequential IP of cross-linked lysates: first HA beads, glycine elution, then HSL or Plin1 antibody; native PAGE; immunoblot with HA antibody, MS of the high molecular weight band.
Assay [4] addresses ApoL6-HA overexpressed in differentiated 3T3-L1 adipocytes (mouse). Described as above.
The target of assay [5] is endogenous ApoL6 (mouse (endogenous in WAT)). Kind of assay: co-IP; total LD-associated proteins of mouse WAT (aP2-ApoL6 TG or WT; fasted or fed mice for Plin1-HSL); IP with Myc, Plin1 or ApoL6 antibody, immunoblot.
Assay [6] concerns the target Myc-tagged ApoL6 (aP2-ApoL6 TG mice) (mouse). The description is as above.
For assay [7], the target named is ApoL6-GST (mouse). Kind of assay: pull-down; purified ApoL6-GST proteins incubated with purified protein (Plin1, Plin1SD or ATGL); GST pull-down, immunoblot; both purified.
In assay [8] the target is ApoL6-cVenus (mouse). Briefly: split reporter; BiFC with Venus fragments VN210 (on Plin1) and VC210 (on ApoL6), co-transfected cells, fluorescence imaging with LipidTOX.

Changes are numbered by the printed parent chain. These are yes or no findings as the source states them, for the method shown. Binding calls can cover weak binding; strength is not graded here. For part of these data: In cells and extracts the contact can be indirect.

For “Myc-tagged ApoL6 (aP2-ApoL6 TG mice) (mouse)”, the binding entry in assay [1] was “binds”.

B1: in vitro translated HSL (enzyme, UniProt P54310 1-759)
chain: MDLRTMTQSLVTLAEDNMAFFSSQGPGETARRLSNVFAGVREQALGLEPTLGQLLGVAHHFDLDTETPANGYRSLVHTARCCLAHLLHKSRYVASNRKSIFFRASHNLAELEAYLAALTQLRAMAYYAQRLLTINRPGVLFFEGDEGLTADFLQEYVTLHKGCFYGRCLGFQFTPAIRPFLQTLSIGLVSFGEHYKRNETGLSVTASSLFTGGRFAIDPELRGAEFERIIQNLDVHFWKAFWNITEIEVLSSLANMASTTVRVSRLLSLPPEAFEMPLTSDPRLTVTISPPLAHTGPAPVLARLISYDLREGQDSKVLNSLAKSEGPRLELRPRPHQAPRSRALVVHIHGGGFVAQTSKSHEPYLKNWAQELGVPIFSIDYSLAPEAPFPRALEECFFAYCWAVKHCDLLGSTGERICLAGDSAGGNLCITVSLRAAAYGVRVPDGIMAAYPVTTLQSSASPSRLLSLMDPLLPLSVLSKCVSAYSGTEAEDHFDSDQKALGVMGLVQRDTSLFLRDLRLGASSWLNSFLELSGRKPQKTTSPTAESVRPTESMRRSVSEAALAQPEGLLGTDTLKKLTIKDLSNSEPSDSPEMSQSMETLGPSTPSDVNFFLRPGNSQEEAEAKDEVRPMDGVPRVRAAFPEGFHPRRSSQGVLHMPLYTSPIVKNPFMSPLLAPDSMLKTLPPVHLVACALDPMLDDSVMFARRLRDLGQPVTLKVVEDLPHGFLSLAALCRETRQATEFCVQRIRLILTPPAAPLN
modifications: 35S-labelled methionine
Consider B1, for which, in assay [2], the binding entry is recorded as “no binding”.

B2: endogenous Perilipin 1 (Plin1) (protein, UniProt Q8CGN5 1-517)
chain: T1 sequence
As to B2, the binding result in assay [3], in assay [4], in assay [5] and in assay [6] was “binds” in each case.

B3: in vitro translated Plin1 (protein, UniProt Q8CGN5 1-517)
chain: T1 sequence
modifications: 35S-labelled methionine
Take B3: the binding result in assay [2] is reported as “binds”.

B4: purified Plin1SD (protein, UniProt Q8CGN5 1-517)
chain: T1 sequence with S81D, S222D, S276D
Regarding B4, the binding entry in assay [7] is listed as “binds”.

B5: Plin1-nVenus (protein, UniProt Q8CGN5 1-517)
chain: T1 sequence
For the molecule B5, in assay [8], the binding result is reported as “binds”.

B6: purified full length Plin1 (protein, UniProt Q8CGN5 1-517)
chain: T1 sequence
B6: the binding entry in assay [7] is on record as “binds”.

B7: in vitro translated ATGL (enzyme, UniProt Q8BJ56 1-486)
chain: MFPRETKWNISFAGCGFLGVYHIGVASCLREHAPFLVANATHIYGASAGALTATALVTGACLGEAGANIIEVSKEARKRFLGPLHPSFNLVKTIRGCLLKTLPADCHERANGRLGISLTRVSDGENVIISHFSSKDELIQANVCSTFIPVYCGLIPPTLQGVRYVDGGISDNLPLYELKNTITVSPFSGESDICPQDSSTNIHELRVTNTSIQFNLRNLYRLSKALFPPEPMVLREMCKQGYRDGLRFLRRNGLLNQPNPLLALPPVVPQEEDAEEAAVVEERAGEEDQLQPYRKDRILEHLPARLNEALLEACVEPKDLMTTLSNMLPVRLATAMMVPYTLPLESAVSFTIRLLEWLPDVPEDIRWMKEQTGSICQYLVMRAKRKLGDHLPSRLSEQVELRRAQSLPSVPLSCATYSEALPNWVRNNLSLGDALAKWEECQRQLLLGLFCTNVAFPPDALRMRAPASPTAADPATPQDPPGLPPC
modifications: 35S-labelled methionine
Regarding B7, in assay [2], the binding result is reported as “no binding”.

B8: purified ATGL (enzyme, UniProt Q8BJ56 1-486)
chain: B7 chain
As for B8, the binding entry in assay [7] is reported as “no binding”.
